Reference: PubChem BioAssay AID1224830 (NIAID, 2016)

Screen: 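Genes whose knock-down alters the TNF-alpha reporter response to LPS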 (primary screen)
Cells: human THP-1 monocytic leukaemia cells, TNF dual-luciferase reporter clone, PMA-differentiated to macrophage-like cells
Reagents: siRNA pool against human genes, 50 nM
Duration: LPS for 4 h, given about 3 days after siRNA transfection
Challenge: bacterial LPS (TLR4 ligand), 10 ng/ml
Measured: 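TNF firefly reporter luminescence divided by renilla, normalised to the plate median, then turned into a robust z-score for each replicate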
Direction: TNF reporter robust z-score: higher = stronger TNF reporter response to LPS
Rule for the call: 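Each well counts as active if its z-score is over 2.8 or under -1.5; controls are left without a call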
This is a random part of about 18,000 reagents. About 2,900 of all reagents (16%) were called active. 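Calls are made per well; low scores hint the gene aids the LPS response, high scores that it dampens it.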 Repeated entries: four replicate wells of each siRNA pool.

no.	gene knocked down	TNF reporter robust z-score	outcome
1	RFK	-1.59	active
2	RFK	-1.22	inactive
3	RFK	-1.47	inactive
4	RFK	-1.69	active
5	RB1	-0.16	inactive
6	RB1	1.34	inactive
7	RB1	0.16	inactive
8	RB1	1.08	inactive
9	SLC30A7	-0.26	inactive
10	SLC30A7	-0.6	inactive
11	SLC30A7	-1.44	inactive
12	SLC30A7	0.25	inactive
13	SGPP1	0.28	inactive
14	SGPP1	1.25	inactive
15	SGPP1	-0.15	inactive
16	SGPP1	1.66	inactive
17	TMEM141	-0.81	inactive
18	TMEM141	1.52	inactive
19	TMEM141	0.78	inactive
20	TMEM141	-1.21	inactive
21	ACTL8	-0.94	inactive
22	ACTL8	1.45	inactive
23	ACTL8	0.38	inactive
24	ACTL8	0.19	inactive
25	EDDM3A	1.09	inactive
26	EDDM3A	0.03	inactive
27	EDDM3A	0.2	inactive
28	EDDM3A	1	inactive
29	CD99L2	-0.66	inactive
30	CD99L2	-0.98	inactive
31	CD99L2	-0.74	inactive
32	CD99L2	-0.76	inactive
33	ANXA4	-1.13	inactive
34	ANXA4	-0.14	inactive
35	ANXA4	0.65	inactive
36	ANXA4	-0.06	inactive
37	PRB2	1.33	inactive
38	PRB2	0.67	inactive
39	PRB2	1.23	inactive
40	PRB2	0.74	inactive
41	EFHC2	1.11	inactive
42	EFHC2	0.1	inactive
43	EFHC2	1.49	inactive
44	EFHC2	0.84	inactive
45	DMD	-0.17	inactive
46	DMD	-0.44	inactive
47	DMD	-0.59	inactive
48	DMD	-0.54	inactive
49	GNAI2	-1.73	active
50	GNAI2	-1.05	inactive
51	GNAI2	0.83	inactive
52	GNAI2	1.65	inactive
53	ACP1	0.77	inactive
54	ACP1	0.44	inactive
55	ACP1	0.11	inactive
56	ACP1	0.31	inactive
57	IKZF3	0.32	inactive
58	IKZF3	4.08	active
59	IKZF3	-0.39	inactive
60	IKZF3	0.71	inactive
61	DNAH3	0.02	inactive
62	DNAH3	0.34	inactive
63	DNAH3	1.16	inactive
64	DNAH3	0.88	inactive
65	RABGGTA	-1.02	inactive
66	RABGGTA	-1.06	inactive
67	RABGGTA	-0.64	inactive
68	RABGGTA	-1.31	inactive
69	CORO1A	2.09	inactive
70	CORO1A	2.95	active
71	CORO1A	2.3	inactive
72	CORO1A	2	inactive
73	RHBDD1	2.71	inactive
74	RHBDD1	1.25	inactive
75	RHBDD1	2.47	inactive
76	RHBDD1	1.7	inactive
77	PELI3	1.79	inactive
78	PELI3	0.7	inactive
79	PELI3	0.3	inactive
80	PELI3	-0.33	inactive
81	ZNF30		inactive
82	ZNF30	0.23	inactive
83	ZNF30	0.81	inactive
84	ZNF30	0.44	inactive
85	LTBP3	0.3	inactive
86	LTBP3	-1.11	inactive
87	LTBP3	-0.97	inactive
88	LTBP3	0.65	inactive
89	NTSR2	0.18	inactive
90	NTSR2	-0.04	inactive
91	NTSR2	-0.16	inactive
92	NTSR2	0.09	inactive
93	SERPINH1	-0.13	inactive
94	SERPINH1	0.12	inactive
95	SERPINH1	-0.34	inactive
96	SERPINH1	0.47	inactive
97	NLGN4Y	1.22	inactive
98	NLGN4Y	2.1	inactive
99	NLGN4Y	1.01	inactive
100	NLGN4Y	2.67	inactive
101	IL18RAP	0.22	inactive
102	IL18RAP	1.74	inactive
103	IL18RAP	1.33	inactive
104	IL18RAP	1.82	inactive
105	ECM1	-0.86	inactive
106	ECM1	-0.82	inactive
107	ECM1	-1.03	inactive
108	ABT1	-1.85	active
109	ABT1	-2.11	active
110	ABT1	-1.83	active
111	ABT1	-1.72	active

12 of these entries, set out differently.
gene knocked down,TNF reporter robust z-score,outcome
RHBDD1,2.71,inactive
RHBDD1,1.25,inactive
RHBDD1,2.47,inactive
RHBDD1,1.7,inactive
PELI3,1.79,inactive
PELI3,0.7,inactive
PELI3,0.3,inactive
PELI3,-0.33,inactive
ZNF30,,inactive
ZNF30,0.23,inactive
ZNF30,0.81,inactive
ZNF30,0.44,inactive
